This note sets out measurements from the supplement of paper PMC11546906.

Each structure is given as a SMILES string. Where a name gives a salt, the structure may show the parent alone. Some of the results follow. Single values are uncertain here, since repeats match poorly.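 FDA-approved drugs were each paired with colistin at one-eighth its MIC and screened against a multidrug-resistant, mcr-1-positive clinical E. coli isolate, with OD600 read after 24 h. Drug-free bacteria served as growth control, plain broth as blank. Combinations were active if OD600 dropped below 0.2.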

The experiment relates to Escherichia coli 42 (mcr-1-positive clinical isolate). Put plainly: OD600 after 24 h growth with compound plus colistin (absorbance units (OD600)); higher = more bacterial growth (less inhibition). The conditions noted are these: first compound 25 µM; colistin concentration 0.5 ug/mL; incubation time 24 h; 37 °C.
`OC(CCCN1CCCCC1)(c1ccccc1)c1ccccc1` [Diphenidol hydrochloride] + CCC(C)CCCC(=O)N[C@@H](CCN)C(=O)N[C@H](C(=O)N[C@@H](CCN)C(=O)N[C@H]1CCNC(=O)[C@H]([C@@H](C)O)NC(=O)[C@H](CCN)NC(=O)[C@H](CCN)NC(=O)[C@H](CC(C)C)NC(=O)[C@@H](CC(C)C)NC(=O)[C@H](CCN)NC1=O)[C@@H](C)O [colistin]: the OD600 was inactive: 0.837.

Consider `Cc1onc(-c2ccccc2)c1-c1ccc(S(N)(=O)=O)cc1` [Valdecoxib] + CCC(C)CCCC(=O)N[C@@H](CCN)C(=O)N[C@H](C(=O)N[C@@H](CCN)C(=O)N[C@H]1CCNC(=O)[C@H]([C@@H](C)O)NC(=O)[C@H](CCN)NC(=O)[C@H](CCN)NC(=O)[C@H](CC(C)C)NC(=O)[C@@H](CC(C)C)NC(=O)[C@H](CCN)NC1=O)[C@@H](C)O [colistin], for which the OD600 was inactive: 0.986.

As to `OCCOCCN1CCN(C(c2ccccc2)c2ccc(Cl)cc2)CC1` (configuration not stated) [Hydroxyzine dihydrochloride] + CCC(C)CCCC(=O)N[C@@H](CCN)C(=O)N[C@H](C(=O)N[C@@H](CCN)C(=O)N[C@H]1CCNC(=O)[C@H]([C@@H](C)O)NC(=O)[C@H](CCN)NC(=O)[C@H](CCN)NC(=O)[C@H](CC(C)C)NC(=O)[C@@H](CC(C)C)NC(=O)[C@H](CCN)NC1=O)[C@@H](C)O [colistin], the OD600 was inactive: 1.04.

Take `O=c1cc[nH]c(=S)[nH]1` [2-Thiouracil] + CCC(C)CCCC(=O)N[C@@H](CCN)C(=O)N[C@H](C(=O)N[C@@H](CCN)C(=O)N[C@H]1CCNC(=O)[C@H]([C@@H](C)O)NC(=O)[C@H](CCN)NC(=O)[C@H](CCN)NC(=O)[C@H](CC(C)C)NC(=O)[C@@H](CC(C)C)NC(=O)[C@H](CCN)NC1=O)[C@@H](C)O [colistin]: the OD600 was inactive: 0.808.

In the case of `Nc1ccc(S(=O)(=O)Nc2nccs2)cc1` [Sulfathiazole] + CCC(C)CCCC(=O)N[C@@H](CCN)C(=O)N[C@H](C(=O)N[C@@H](CCN)C(=O)N[C@H]1CCNC(=O)[C@H]([C@@H](C)O)NC(=O)[C@H](CCN)NC(=O)[C@H](CCN)NC(=O)[C@H](CC(C)C)NC(=O)[C@@H](CC(C)C)NC(=O)[C@H](CCN)NC1=O)[C@@H](C)O [colistin], the OD600 was inactive: 1.1.

On to `Nc1nc(Cl)nc2c1ncn2[C@@H]1O[C@H](CO)[C@@H](O)[C@@H]1F` [Clofarabine] + CCC(C)CCCC(=O)N[C@@H](CCN)C(=O)N[C@H](C(=O)N[C@@H](CCN)C(=O)N[C@H]1CCNC(=O)[C@H]([C@@H](C)O)NC(=O)[C@H](CCN)NC(=O)[C@H](CCN)NC(=O)[C@H](CC(C)C)NC(=O)[C@@H](CC(C)C)NC(=O)[C@H](CCN)NC1=O)[C@@H](C)O [colistin], for which the OD600 was inactive: 0.795.

`COC(c1ccccc1)(c1ccccc1)[C@H](Oc1nc(C)cc(C)n1)C(=O)O` [Ambrisentan] + CCC(C)CCCC(=O)N[C@@H](CCN)C(=O)N[C@H](C(=O)N[C@@H](CCN)C(=O)N[C@H]1CCNC(=O)[C@H]([C@@H](C)O)NC(=O)[C@H](CCN)NC(=O)[C@H](CCN)NC(=O)[C@H](CC(C)C)NC(=O)[C@@H](CC(C)C)NC(=O)[C@H](CCN)NC1=O)[C@@H](C)O [colistin]: the OD600 was inactive: 0.88.

`C/C(=C\C(=O)OCCCCCCCCC(=O)O)C[C@@H]1OC[C@H](C[C@@H]2O[C@H]2[C@@H](C)[C@H](C)O)[C@@H](O)[C@H]1O` [Mupirocin] + CCC(C)CCCC(=O)N[C@@H](CCN)C(=O)N[C@H](C(=O)N[C@@H](CCN)C(=O)N[C@H]1CCNC(=O)[C@H]([C@@H](C)O)NC(=O)[C@H](CCN)NC(=O)[C@H](CCN)NC(=O)[C@H](CC(C)C)NC(=O)[C@@H](CC(C)C)NC(=O)[C@H](CCN)NC1=O)[C@@H](C)O [colistin]: the OD600 was active: 0.037.

In the case of `COc1ccc(-c2ccc3cc(C(=O)O)ccc3c2)cc1C12CC3CC(CC(C3)C1)C2` [Adapalene] + CCC(C)CCCC(=O)N[C@@H](CCN)C(=O)N[C@H](C(=O)N[C@@H](CCN)C(=O)N[C@H]1CCNC(=O)[C@H]([C@@H](C)O)NC(=O)[C@H](CCN)NC(=O)[C@H](CCN)NC(=O)[C@H](CC(C)C)NC(=O)[C@@H](CC(C)C)NC(=O)[C@H](CCN)NC1=O)[C@@H](C)O [colistin], the OD600 is inactive: 1.12.

As to `CO/N=C(\C(=O)N[C@@H]1C(=O)N2C(C(=O)OCOC(=O)C(C)(C)C)=C(/C=C\c3scnc3C)CS[C@H]12)c1csc(N)n1` [Cefditoren pivoxil] + CCC(C)CCCC(=O)N[C@@H](CCN)C(=O)N[C@H](C(=O)N[C@@H](CCN)C(=O)N[C@H]1CCNC(=O)[C@H]([C@@H](C)O)NC(=O)[C@H](CCN)NC(=O)[C@H](CCN)NC(=O)[C@H](CC(C)C)NC(=O)[C@@H](CC(C)C)NC(=O)[C@H](CCN)NC1=O)[C@@H](C)O [colistin], the OD600 was inactive: 0.677.

On to `CCC1(C)CC(=O)NC1=O` (configuration not stated) [Ethosuximide] + CCC(C)CCCC(=O)N[C@@H](CCN)C(=O)N[C@H](C(=O)N[C@@H](CCN)C(=O)N[C@H]1CCNC(=O)[C@H]([C@@H](C)O)NC(=O)[C@H](CCN)NC(=O)[C@H](CCN)NC(=O)[C@H](CC(C)C)NC(=O)[C@@H](CC(C)C)NC(=O)[C@H](CCN)NC1=O)[C@@H](C)O [colistin], for which the OD600 is inactive: 0.961.

`CC[C@H](C)[C@H](N)C1=N[C@H](C(=O)N[C@@H](CC(C)C)C(=O)N[C@H](CCC(=O)O)C(=O)N[C@H](C(=O)N[C@H]2CCCCNC(=O)[C@H](CC(N)=O)NC(=O)[C@@H](CC(=O)O)NC(=O)[C@H](Cc3cnc[nH]3)NC(=O)[C@@H](Cc3ccccc3)NC(=O)[C@H]([C@@H](C)CC)NC(=O)[C@@H](CCCN)NC2=O)[C@@H](C)CC)CS1` [Bacitracin] + CCC(C)CCCC(=O)N[C@@H](CCN)C(=O)N[C@H](C(=O)N[C@@H](CCN)C(=O)N[C@H]1CCNC(=O)[C@H]([C@@H](C)O)NC(=O)[C@H](CCN)NC(=O)[C@H](CCN)NC(=O)[C@H](CC(C)C)NC(=O)[C@@H](CC(C)C)NC(=O)[C@H](CCN)NC1=O)[C@@H](C)O [colistin]: the OD600 is inactive: 1.01.
